Experimental data published in paper PMC6707248.

Sequences of proteins named here, by UniProt entry; tags and fusion partners are left off. A change or cut given only in a name is not applied to a line headed by its entry.
UniProt P06748: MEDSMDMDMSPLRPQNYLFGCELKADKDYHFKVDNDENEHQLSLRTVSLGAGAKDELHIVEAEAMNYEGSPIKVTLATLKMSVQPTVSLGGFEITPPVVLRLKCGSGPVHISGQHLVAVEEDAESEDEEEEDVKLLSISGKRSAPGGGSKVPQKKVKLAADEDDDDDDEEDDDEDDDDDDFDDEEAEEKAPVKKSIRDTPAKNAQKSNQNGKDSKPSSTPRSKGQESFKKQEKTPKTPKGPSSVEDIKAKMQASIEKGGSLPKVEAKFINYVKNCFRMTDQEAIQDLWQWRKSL
UniProt Q9Y3D8: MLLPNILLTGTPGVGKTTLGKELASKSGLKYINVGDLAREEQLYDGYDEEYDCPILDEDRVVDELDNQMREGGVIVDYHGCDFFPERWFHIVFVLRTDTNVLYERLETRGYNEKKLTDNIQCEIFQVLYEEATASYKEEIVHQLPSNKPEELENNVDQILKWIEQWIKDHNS

Molecular target: endogenous NPM1 of the NPM1 mutant OCI-AML3 cell line (human (endogenous in OCI-AML3)) (UniProt P06748)
Experiment: co-IP; endogenous proteins, NPM1 mutant OCI-AML3 cell line (Supplementary Fig. 2b)

endogenous hCINAP (from UniProt Q9Y3D8 1-172)
binding: binds

Results are given in words; binding and its absence hold for the method and conditions named. Binding seen in cells or lysates may run through a third protein. Binding can be weak; no strength is given.
